Source: patent US6495529B1 (Warner-Lambert Company, priority 1998, dated 2002)

System: α2-receptors
Assay: ALPHA-2 binding, p-125Iodoclonidine, canine brain (frontal cortex) membranes
Set-up: species or system dog
Conditions: radioligand
Procedure: Membranes of mongrel dogs were harvested from the canine frontal cortex and prepared as described for lung except that the final membrane protein concentration was adjusted to 0.5 mg/ml.
Nonspecific binding was determined in separate incubations in the presence of 10 μM phentolamine. The final concentration of p-iodoclonidine was 44-45 pM in competition studies and between 50 pM and 10 nM in saturation experiments. Bound and free […] were separated and the bound quantitated as described above for the ICYP assays.
All data were analyzed with the aid of microcomputer nonlinear curve fitting programs (PRISM 2.0, Graphpad Software, San Diego Calif.).
The receptors resident in each of the three membrane preparations were evaluated by standard saturation analysis following the addition of increasing concentrations of the appropriate radioligand.
The radio ligand added for subsequent α2-displacement assays was adjusted to evaluate only the high affinity receptor. Contributions from p-iodoclonidine binding to imidazoline receptors in the α2-displacement assay were evaluated with epinephrine.

`Clc1cc(I)cc(Cl)c1NC1=NCCN1` [p-iodoclonidine] was tested, and the “Bmax1 (high affinity)” value (Saturation Analysis) was 57 femtomoles per mg protein, the “Bmax2 (low affinity)” value (Saturation Analysis) was 73 femtomoles per mg protein and the “Bmax1 (high affinity)” value (Scatchard Analysis) was 67 femtomoles per mg protein. The “Bmax2 (low affinity)” value (Scatchard Analysis) was 120 femtomoles per mg protein.
